Tested on: chopped prothallium of Davallia mariesii
Assay: Calluses induction from chopped prothallium under various growth regulators
Format: cell-based
Conditions: 60 days
Experimental: The prothallium is chopped up into small pieces being 0.1 cm to 0.2 cm in width and cultured (suspending culture) in a medium, wherein the medium comprises ½ MS medium (Murashige and Skoog, 1962) having a composition as shown in TABLE 1. In other examples, the medium can also comprise Knop medium (Murashige and Skoog, 1962) or knudson medium (Knudson, 1946). Precisely, 0.1 g chopped prothallium are cultured in 10 ml ½ MS medium, which are shake cultured at 85 rpm for forty to eighty days, and preferably at 23° C. to 25° C. and 11 to 14 μmol^−2 s^−1 (Light:Dark=16:8) for sixty days, and are sub-cultured every thirty days. In the present experiment, a plurality of 50 ml flasks are prepared, each having 0.1 g chopped prothallium of Davallia mariesii (in 0.1 cm to 0.2 cm pieces) being cultured in a medium therein, wherein the medium comprises 10 ml ½ MS medium (including a small amount of sucrose, namely 20 g/l sucrose) and various growth regulators in various amounts as listed in TABLE 2. After 60 days of culturing, calluses obtained in each flask are collected and analyzed respectively, to record the size, weight and number of each callus.

[1] = single growth regulator 1 mg/L in 1/2 MS medium
[2] = single growth regulator 2 mg/L in 1/2 MS medium

`c1coc(CNc2ncnc3nc[nH]c23)c1` [Kinetin, 6-Furfurylamino-purine] was tested, and the Appearances of calluses [1] was “green”, the Appearances of calluses [2] was “green” and the Appearances of calluses (single growth regulator 5 mg/L in 1/2 MS medium) was “green”.
In the case of `O=C(O)Cc1cccc2ccccc12` [NAA, 1-Naphthaleneacetic acid], the Appearances of calluses [1] is reported as “brown” and the Appearances of calluses [2] is reported as “brown”.

Reference: patent US20150132852A1, “TISSUE CULTURING METHOD, CULTURING METHOD OF FERNS AND EXPLANT OBTAINED THEREFROM” (Chunghwa Picture Tubes, Ltd., priority 2013, published 2015)
